According to article PMC12690528:
Results are given in words; binding and its absence hold for the method and conditions named. In cells and extracts the contact can be indirect. Some binding calls cover weakened binding; strength is not graded here. Values belong to the molecule of their own block, whether it stands above or below them.

The chains behind the UniProt entries cited, without tags or fusion partners.
UniProt P15409: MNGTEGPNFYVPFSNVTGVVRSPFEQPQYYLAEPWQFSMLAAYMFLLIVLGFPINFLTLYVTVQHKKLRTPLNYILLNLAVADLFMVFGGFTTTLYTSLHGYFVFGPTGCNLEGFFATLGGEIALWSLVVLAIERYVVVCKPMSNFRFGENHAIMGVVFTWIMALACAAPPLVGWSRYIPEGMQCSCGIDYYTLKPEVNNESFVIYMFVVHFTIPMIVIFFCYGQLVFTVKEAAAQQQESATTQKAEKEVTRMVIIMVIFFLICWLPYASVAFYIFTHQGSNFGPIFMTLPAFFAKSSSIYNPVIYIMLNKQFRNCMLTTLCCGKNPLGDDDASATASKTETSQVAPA
UniProt P35279: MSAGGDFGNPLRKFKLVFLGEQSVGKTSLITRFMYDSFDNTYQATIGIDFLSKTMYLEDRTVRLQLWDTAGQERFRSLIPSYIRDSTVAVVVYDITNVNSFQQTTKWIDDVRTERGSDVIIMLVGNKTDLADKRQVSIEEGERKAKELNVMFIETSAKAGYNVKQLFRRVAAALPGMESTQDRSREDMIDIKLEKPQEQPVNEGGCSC

Biological target: rhodopsin (Rho) (mouse (endogenous in WT mouse retina)) (UniProt P15409)
Experiment: co-IP; WT mouse retina lysate in T-PER buffer; Rho captured on 1D4 antibody-conjugated Sepharose beads, 12-16 h at 4°C; washed in PBS + 0.1% Tween-20; western blot

- binding: binds
Molecule: Rab6a (from UniProt P35279 1-208)

- binding: no binding
B1: phosducin (Pdc) (protein, UniProt Q9QW08 1-244)
chain: MEEAASQSLEEDFEGQATHTGPKGVINDWRKFKLESEDGDSIPPSKKEILRQMSSPQSRDDSKERMSRKMSIQEYELIHQDKEDESCLRKYRRQCMQDMHQKLSFGPRYGFVYELETGEQFLETIEKEQKVTTIVVNIYEDGVRGCDALNSSLACLAVEYPMVKFCKIKASNTGAGDRFSTDVLPTLLVYKGGELISNFISVAEQFAEEFFAVDVESFLNEYGLLPEREIHDLEQTNMEDEDIE
